This experiment deals with mutated protomer of the pseudomonomeric LARGE1dTM heterodimer (UniProt O95461). Briefly: tandem affinity purification; co-expression of two differently tagged LARGE1dTM protomers (FLAG-tagged DXD1 and his-tagged DXD3), then tandem affinity purification.

These are yes or no findings as the source states them, for the method shown. A result given as binding can be weak or reduced; the word gives no strength.

B1: wild-type protomer of the pseudomonomeric LARGE1dTM heterodimer (enzyme, UniProt O95461 34-756)
chain: FEDGKPVSLSPLESQAHSPRYTASSQRERESLEVRMREVEEENRALRRQLSLAQGRAPSHRRGNHSKTYSMEEGTGDSENLRAGIVAGNSSECGQQPVVEKCETIHVAIVCAGYNASRDVVTLVKSVLFHRRNPLHFHLIADSIAEQILATLFQTWMVPAVRVDFYNADELKSEVSWIPNKHYSGIYGLMKLVLTKTLPANLERVIVLDTDITFATDIAELWAVFHKFKGQQVLGLVENQSDWYLGNLWKNHRPWPALGRGYNTGVILLLLDKLRKMKWEQMWRLTAERELMGMLSTSLADQDIFNAVIKQNPFLVYQLPCFWNVQLSDHTRSEQCYRDVSDLKVIHWNSPKKLRVKNKHVEFFRNLYLTFLEYDGNLLRRELFGCPSEADVNSENLQKQLSELDEDDLCYEFRRERFTVHRTHLYFLHYEYEPAADSTDVTLVAQLSMDRLQMLEAICKHWEGPISLALYLSDAEAQQFLRYAQGSEVLMSRHNVGYHIVYKEGQFYPVNLLRNVAMKHISTPYMFLSDIDFLPMYGLYEYLRKSVIQLDLANTKKAMIVPAFETLRYRLSFPKSKAELLSMLDMGTLFTFRYHVWTKGHAPTNFAKWRTATTPYRVEWEADFEPYVVVRRDCPEYDRRFVGFGWNKVAHIMELDVQEYEFIVLPNAYMIHMPHAPSFDITKFRSNKQYRICLKTLKEEFQQDMSRRYGFAALKYLTAENNS
B1: the binding entry was “binds”.
